{"source": "PubChem BioAssay AID1508597 (Cure First, 2020)", "test": "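Genes whose silencing sensitises or protects ovarian cancer cells against rucaparib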 (primary screen)", "cells": "human ovarian carcinoma lines grown from tumours: OCI-P5x (papillary serous) and OCI-C5x (clear cell)", "knock-down reagent": "siRNA pool against human genes, 1.25 pmol siRNA per well", "duration": "72 h or 96 h, depending on the cell culture", "treatment": "rucaparib 20 µM (about IC30) or vehicle, present until read-out", "rucaparib or vehicle": "Vehicle", "cell line": "OCI-C5x (clear cell)", "detection": "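Luminescent ATP-based viability assay read 72 or 96 h after transfection, depending on culture, given as normalised percent viability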", "scale": "viability, normalised: higher = more viable cells remaining", "active means": "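Active when normalised viability falls below 80 percent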", "meaning of the calls": "active = viability under 80%; inactive = viability 80% or more", "note": "This is an unselected part of the about 2,100 reagents, under one of the conditions tested. 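Calls flag viability under 80% in either arm, not effects specific to rucaparib; the reference for percent is not stated.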 A number with no mark means an inactive call. A reagent listed more than once was tested more than once; the source does not tell the runs apart. The record does not give: the 100% reference."}
{"gene": "MAP3K3", "technical replicate": "1", "viability, normalised (%)": "75.3 (active)"}
{"gene": "MAP3K3", "technical replicate": "2", "viability, normalised (%)": "59.9 (active)"}
{"gene": "MAP3K3", "technical replicate": "3", "viability, normalised (%)": "60.9 (active)"}
{"gene": "MUC16", "technical replicate": "1", "viability, normalised (%)": "74.7 (active)"}
{"gene": "MUC16", "technical replicate": "2", "viability, normalised (%)": "75.4 (active)"}
{"gene": "MUC16", "technical replicate": "3", "viability, normalised (%)": "74.8 (active)"}
{"gene": "CLDN17", "technical replicate": "1", "viability, normalised (%)": "34.3 (active)"}
{"gene": "CLDN17", "technical replicate": "2", "viability, normalised (%)": "35.7 (active)"}
{"gene": "CLDN17", "technical replicate": "3", "viability, normalised (%)": "34 (active)"}
{"gene": "CBX7", "technical replicate": "1", "viability, normalised (%)": "29.2 (active)"}
{"gene": "CBX7", "technical replicate": "2", "viability, normalised (%)": "20 (active)"}
{"gene": "CBX7", "technical replicate": "3", "viability, normalised (%)": "29.8 (active)"}
{"gene": "H4C1", "technical replicate": "1", "viability, normalised (%)": "42.3 (active)"}
{"gene": "H4C1", "technical replicate": "1", "viability, normalised (%)": "42 (active)"}
{"gene": "H4C1", "technical replicate": "2", "viability, normalised (%)": "46.9 (active)"}
{"gene": "H4C1", "technical replicate": "2", "viability, normalised (%)": "50.1 (active)"}
{"gene": "H4C1", "technical replicate": "3", "viability, normalised (%)": "42.8 (active)"}
{"gene": "H4C1", "technical replicate": "3", "viability, normalised (%)": "44.8 (active)"}

No new results follow: 2 of the entries above.
{"gene": "MAP3K3", "technical replicate": "2", "viability, normalised (%)": "59.9 (active)"}
{"gene": "MAP3K3", "technical replicate": "3", "viability, normalised (%)": "60.9 (active)"}

Continued:
{"gene": "NUAK1", "technical replicate": "1", "viability, normalised (%)": "63.5 (active)"}
{"gene": "NUAK1", "technical replicate": "2", "viability, normalised (%)": "60.9 (active)"}
{"gene": "NUAK1", "technical replicate": "3", "viability, normalised (%)": "55 (active)"}
{"gene": "TP53RK", "technical replicate": "1", "viability, normalised (%)": "52.6 (active)"}
{"gene": "TP53RK", "technical replicate": "2", "viability, normalised (%)": "31.8 (active)"}
{"gene": "TP53RK", "technical replicate": "3", "viability, normalised (%)": "44.6 (active)"}
{"gene": "KAT6A", "technical replicate": "1", "viability, normalised (%)": "37.3 (active)"}
{"gene": "KAT6A", "technical replicate": "2", "viability, normalised (%)": "28.9 (active)"}
{"gene": "KAT6A", "technical replicate": "3", "viability, normalised (%)": "43.3 (active)"}
{"gene": "STK38", "technical replicate": "1", "viability, normalised (%)": 95.5}
{"gene": "STK38", "technical replicate": "2", "viability, normalised (%)": "46.3 (active)"}
{"gene": "STK38", "technical replicate": "3", "viability, normalised (%)": "57.6 (active)"}
{"gene": "AK2", "technical replicate": "1", "viability, normalised (%)": "49 (active)"}
{"gene": "AK2", "technical replicate": "2", "viability, normalised (%)": "54.2 (active)"}
{"gene": "AK2", "technical replicate": "3", "viability, normalised (%)": "51.9 (active)"}
